Measurements from the supplement of paper PMC3334620.
Over roughly 33,000 sequences, “E-score (-0.5 to 0.5)” has its median near -0.0014; the highest 2% begin near 0.25. The list shows a part of the results.

target: T1, Cad1 (UniProt P24813); assay: PBM E-score (8-mer binding enrichment) (E-score (-0.5 to 0.5)); higher = stronger / more preferred TF binding; conditions: protein concentration: 100 nM; construct: GST-full length
T1 sequence: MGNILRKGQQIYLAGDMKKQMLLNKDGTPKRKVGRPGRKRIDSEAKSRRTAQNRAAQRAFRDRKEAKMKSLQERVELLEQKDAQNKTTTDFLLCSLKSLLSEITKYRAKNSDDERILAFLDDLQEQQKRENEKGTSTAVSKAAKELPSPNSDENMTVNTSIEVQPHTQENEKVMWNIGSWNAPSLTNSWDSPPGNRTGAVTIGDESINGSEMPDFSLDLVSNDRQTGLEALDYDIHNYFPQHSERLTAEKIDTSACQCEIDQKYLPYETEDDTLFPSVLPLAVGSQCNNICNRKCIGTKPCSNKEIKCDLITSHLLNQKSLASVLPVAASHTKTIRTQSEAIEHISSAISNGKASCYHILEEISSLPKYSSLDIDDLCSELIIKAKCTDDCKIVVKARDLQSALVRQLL
Experimental: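 Universal 'all 10-mer' protein binding microarrays (Agilent AMADID 015681) probed with GST-tagged S. cerevisiae TFs (full-length or DBD) made by in vitro transcription/translation (PURExpress), about 100-200 nM. Bound TF was detected with fluorescent anti-GST. Each ungapped 8-mer (which stands for itself and its reverse complement) is scored by the PBM enrichment score (E-score), a modified Wilcoxon-Mann-Whitney statistic from -0.5 to +0.5, computed with the Universal PBM Analysis Suite. Scale: above 0.35 generally sequence-specific binding.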

Sequence	PBM E-score
CCGTCCAG	-0.0511
GCTAAGCC	-0.109
GTGCCATA	-0.215
GATGATGC	-0.0747
TAACGCAA	-0.00978
CCGCGTAG	0.0464
GGATACTA	-0.0698
GAACGTTA	-0.0273
ACACAGGC	0.0337
GATCCCCC	-0.366
GGAACCAA	0.164
AAGAGTGG	-0.21
CGACTCCA	-0.0472
GGTCGATA	-0.125
GAGATGAC	-0.00686
CCCCATCG	0.0338
CGGACATA	0.117
ATACGGCC	0.0469
CCATCTGC	-0.00947
AACCAGAC	-0.0829
GCCAAATA	0.0976
GCCGATCC	-0.141
GTGGTGCA	-0.087
AGTGCAAC	-0.00855
CGCAATAC	0.228

Sequence	PBM E-score
GAGCATCC	-0.169
AAACGCAA	0.191
GTGCTCGA	-0.0706
GTGTGGTA	-0.152
CCCAGTGA	-0.221
GACTTTGA	-0.00841
ATAATATC	0.196
AAGTCGGG	0.027
ACCGCCCG	-0.241
CCCAGTTA	-0.258
CACATGTA	0.109
AGTCTCAT	-0.0485
CTGTATTA	0.0709
CGTTGGTA	0.141
CTCGACAC	0.162
CTATTGGA	0.0791
CTAGGGAA	-0.105
GGATAGTA	0.122
CTGATTAC	0.334
GTCACCGA	0.0135
CCGTAGGC	-0.152
GACAGCCC	0.0111
ACATGCAC	-0.0512
TATTAGCA	0.108
CTATCTGC	-0.0269

Sequence	PBM E-score
GGGAAATA	0.00695
CCCGCAGC	-0.0683
GCCACGTA	-0.153
GATCGCAA	0.15
CAACGGCA	-0.128
GGCAGTTA	-0.0634
AAATGAAC	0.075
CATGCTTC	-0.146
CGCGGTCC	-0.164
CAGCTACG	-0.184
GTCATTAA	0.226
GACAGATA	0.0715
CCTAGCAG	-0.177
CTACGCAA	-0.0871
AGTCTTAT	0.0391
AGTTTACG	0.0267
GTTGGTTA	0.0706
AGCCACGA	-0.108
AGTGATGG	-0.0863
CACCTGGG	-0.211
AGGATAAC	0.037
ATCGATAC	0.165
ACTTAGTG	-0.142
AGGCCATA	-0.101
TAGAAAAA	-0.11

An excerpt of these results, field by field.
GTCATTAA
  PBM E-score = 0.226
GACAGATA
  PBM E-score = 0.0715
AGTCTTAT
  PBM E-score = 0.0391

Random excerpt: four entries already listed, in no set order.
Sequence	PBM E-score
CGCGGTCC	-0.164
AGTGCAAC	-0.00855
CCCGCAGC	-0.0683
GGATAGTA	0.122

The list goes on:

Sequence	PBM E-score
AACTATGA	-0.00365
GAACGTCC	0.00372
CCATCGAC	0.00288
ATGGTAAC	0.185
ATAGGGAT	-0.0718
CACTGGAC	0.124
GCGCCTGA	0.181
AAGCACCG	-0.146
AGTTCATA	0.101
CTTGCTTC	0.0497
GCGAGGAC	-0.205
CGACGGAA	0.0731
GTCACAAC	0.0393
CCACACAC	0.0882
CCCCTAGA	-0.17
AGAAATCA	0.109
ACCGAGGC	-0.188
GACGGTCA	-0.121
GGTCTCGA	0.061
ATGGAAAT	0.0495
GGGATACA	-0.104
GGCAGCGA	-0.162
AACGCGCG	0.282
CTCCGGAC	0.00021
CGCTTCGA	0.0454

Sequence	PBM E-score
CAGACGAA	0.202
GGCCAGAA	0.079
AAACCGCG	0.271
CGAGCAAA	0.0514
CCGAGATA	0.181
CCTCGGCA	0.0774
ACAACAAA	0.029
CTCTGGAA	-0.0601
ACTACTTA	0.0237
TCCCGGGA	0.248
CTCTTATA	0.158
AGATGCAG	0.117
AATTATCT	0.282
ATACTTTG	0.0521
GGTCGTGA	-0.0496
GAGAACCC	-0.184
TCAATGGA	0.0279
ACCTGACC	-0.238
AAAAACAC	0.173
GACCCCAC	-0.196
CAGTGCAC	0.0573
AAGAACAC	0.163
AAGGCTGA	-0.00348
AAATTGTG	-0.144
ACCGAACT	0.189

Sequence	PBM E-score
CTGGTTTC	0.0789
AGCACAAC	0.116
ATCGCTCA	-0.0243
ATTCGATG	0.0869
CCGACCGG	-0.14
CGATGCAA	-0.104
ATGACATA	0.267
CATAGGTA	-0.0378
ATTTGAGC	-0.0304
ACAGCCCA	0.0465
CAAGACGA	-0.0139
CTGGCGGC	-0.0548
ACGTTGAT	0.148
AGTGTGCA	0.0633
GTAGCGTA	0.00889
AGGCCACA	-0.177
ATCCCTCG	0.093
AGGTAATA	0.225
GTGGCCCA	-0.00188
CTGCATAA	0.0884
AAAGCCTT	-0.142
ATTCTTCG	-0.00874
CGTGATAA	0.137
GAGGCCAC	-0.048
AGTTCACC	0.133

Sequence	PBM E-score
GTTTGGTA	0.161
CCTCACAG	0.081
CAATGATA	0.0335
CAGCGCAG	0.0181
CACGCTGA	0.143
CAAGACCC	-0.151
AAGACTCG	-0.0735
GACGCCTA	-0.168
CCAGTGAA	-0.14
CCGCGGCG	-0.021
ACTTCATC	0.0633
GAAGGTAC	-0.0394
AGGTCGTG	-0.0934
TCCCCAAA	-0.0378
CGATTGTC	0.174
CAAAAGCC	-0.0141
AATACAGC	-0.0531
CTGATCGA	-0.0711
CGCTCACG	0.0972
AAGTAGAT	0.0897
ACGATGCG	-0.0629
CGTCTACC	0.0268
GCGGCTAC	-0.00996
AACGTACG	0.0612
ACTGCCTG	-0.0544

Sequence	PBM E-score
ACGTGAAT	0.153
GAACGGTA	0.0457
AGGTGGAC	-0.245
GTTCCGCA	0.252
GGTCCAGA	-0.0237
CGTGAATC	0.122
CCAGTACA	-0.142
ATCTTGAC	-0.106
AGGGGTTC	-0.287
AATTGGCA	-0.114
CGCTAGTA	0.145
CTGGTGGC	0.0301
GATGTCGC	-0.0282
CTCATACC	0.13
GATTGGGA	-0.144
AGTCGCAT	0.0112
ATTATGAA	0.0884
GCTCAAAC	0.108
GCGAGCAC	-0.0117
AATCTCAG	0.0315
GCTTCACA	-0.0729
ACTTCTTG	0.027
GTGTTCGA	0.208
CGTTTTCA	0.141
CCGCCCCG	0.211

Sequence	PBM E-score
ATAAAATA	0.161
AAACGTCC	-0.0409
GCCGGCGA	-0.0667
CGGGAAAA	0.0645
CCTATAAA	-0.263
AGAGATAT	-0.0136
AATTTTCC	0.26
GAGTGCAC	-0.104
AGTGAAGA	-0.245
AGCGGAAG	0.0595
GACAACAA	0.0956
AAAGAACA	0.0562
CTGTTGTA	0.102
TAACTTCA	0.211
CAGATTAG	-0.0133
AACATTTA	0.034
AGCCATGA	-0.0849
GGGAGCCC	-0.319
CAATTAAC	0.00192
CCCGCCGG	-0.00326
ACGTAGTC	-0.233
GAGGCAGA	-0.184
CCGCGCAC	-0.0328
AATCAAAA	0.0396
AAATTAGT	0.273

A run of entries from the list above, as a working copy:
Sequence	PBM E-score
GGCAGCGA	-0.162
AACGCGCG	0.282
CTCCGGAC	0.00021

(cont.)

Sequence	PBM E-score
AAAAGCCG	0.109
ACGCAGCC	0.0233
CCAGTGCC	-0.0306
GACCGGCC	-0.126
AGCCGTAT	-0.0202
ATTTTGCA	0.0881
GCGATATA	0.145
AAGAAGAA	-0.038
CAGAGGGA	-0.205
CGGAACAC	0.235
AGTCGTTG	-0.116
ATACGCGC	0.215
ATGTCGCA	0.187
AGGTGTTC	0.0664
CCTACCGC	-0.0896
AGCTATTG	-0.0347
CAGGGGGG	-0.484
TCTATCCA	0.00059
TAGACACA	-0.0984
AGTTGTCA	0.126
ACTTATCA	0.116
ATAAGGGG	-0.0559
GCCTCAAC	-0.0513
TAATGCCA	0.113
ACTTCCTG	-0.00649

Sequence	PBM E-score
GAATCAAA	0.0378
ATACTTAC	0.0308
CGATGCAG	-0.11
AGCCTGGA	-0.147
AATCCCTA	0.12
AGGGCTAG	-0.208
ACTATCCT	-0.0796
GAACGAAC	0.151
AAAGTCCA	0.0746
ATATAGAA	0.00309
GTAGACTA	-0.0684
CTCAACTA	0.0449
AGGGTCAG	-0.283
AGACAGAC	0.131
TAATAGAA	0.182
AGTCGAGG	0.00339
ACTTACCA	-0.0399
CCTTGGGA	-0.00782
CGGGCTAA	-0.158
ACCCCGAC	-0.18
CTAGGAAA	-0.177
TGCATTAA	0.156
TCTTACCA	-0.131
AGGGACGA	-0.0363
CAAGTAGA	-0.186

Sequence	PBM E-score
CCGGCAAC	0.00677
GCGGCGGA	0.112
ATGACTGG	-0.193
CCGTCCCG	-0.0572
GAGCTATC	-0.139
CCTTATGC	-0.0125
GAGATGGC	0.19
GTCCAGAA	0.0196
AAAATGGC	-0.0252
CGTCACCC	-0.15
CATAGCGA	0.051
GTCCCTGA	-0.17
AGGTGGGG	-0.0628
CACAGTTC	0.0926
CACTTTCG	0.122
CCATTTAC	-0.0295
ATTTAGCC	0.0331
AAGGGATT	-0.0286
ACTGAGGA	-0.223
ACCCAGCG	-0.168
AAAGAGGT	0.00147
ACCACTAT	0.0199
ATTTACGG	0.117
GATACAAC	0.147
AGCAGATA	-0.0464

Sequence	PBM E-score
CTTGCATA	0.0652
GACTCAAC	0.0863
ATTTTGAA	0.15
CACCGTCG	-0.0093
TGCATGAA	0.201
CCACTAAC	0.105
AGAAGCAG	-0.0954
CATAGTGG	-0.0395
TATCGCGA	0.259
ACCAACTG	-0.0938
AGATCGTC	-0.114
CTCTGGTA	0.00844
AGCCGTGG	-0.135
ACAAGGTG	-0.00821
GACGAGGA	0.121
GACATTAC	0.171
AGGCCGAA	-0.0603
GGCGATAA	-0.0679
CACATCCC	-0.0533
ATGATGAA	0.216
ACACAGGG	0.0433
GGGCTTGA	-0.109
CCAATTGC	-0.114
GCCGAACA	0.0432
TTCAACAA	0.124

Sequence	PBM E-score
CCAACTAG	0.0684
TGCTGTAA	-0.0294
CATGGCAA	-0.0412
AACCTGAA	-0.192
AAATTATT	0.181
AAGTAGAC	0.00908
CCCGAATA	0.0801
GATAGAGC	0.0529
CGTGGGAA	-0.12
GTATTAAC	-0.0392
AAAGTTCA	0.0815
ACTTTACG	-0.0406
TGCCAAAA	0.068
CGGCACGC	-0.0478
ACCTTGCT	-0.119
ATATGGAT	0.212
TAGCGGAA	-0.149
ATCCACTG	-0.127
ACAGCTAG	-0.0773
